This is one part of the list.
Key:
Experiment in all cases: log2 fold change, soluble protein after heating vs DMSO (PISA); higher = thermal stabilisation; K562 lysate, 10 uM; active = over 0.2 and 3.5 SD of the protein, either way, in both replicates (recomputed)
alvocidib = compound: CN1CC[C@H](c2c(O)cc(O)c3c(=O)cc(-c4ccccc4Cl)oc23)[C@H](O)C1 [alvocidib]
Outline: (§1)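 Pellets of K562 cells were dounce-homogenised in PBS pH 7.4 with 1 mM MgCl2, and the crude extract was held at 1 mg/mL protein for a 30 min treatment with 10 μM compound. Aliquots were heated for 3 min over 48°C-58°C and pooled before NP-40 was added to 0.5% at 4°C. The supernatant from 21,000xg for 90 min was quantified by TMTpro 16plex LC-MS/MS with channel sums equalised. Values are reported from duplicates as log-two fold change in thermal stability relative to solvent controls.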

The chains behind the UniProt entries cited, without tags or fusion partners. Where a name states a change or a piece, a line headed by the entry shows the natural chain unless it says otherwise.
UniProt P08758: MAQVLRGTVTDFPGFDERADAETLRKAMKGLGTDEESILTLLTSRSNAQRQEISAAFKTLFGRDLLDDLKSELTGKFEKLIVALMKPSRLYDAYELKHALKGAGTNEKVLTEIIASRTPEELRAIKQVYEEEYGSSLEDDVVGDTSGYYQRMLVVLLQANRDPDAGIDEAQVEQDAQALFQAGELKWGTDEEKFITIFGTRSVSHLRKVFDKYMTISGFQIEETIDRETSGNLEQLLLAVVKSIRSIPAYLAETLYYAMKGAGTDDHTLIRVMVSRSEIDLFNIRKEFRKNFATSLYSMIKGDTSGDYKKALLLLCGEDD
UniProt Q4KMQ2: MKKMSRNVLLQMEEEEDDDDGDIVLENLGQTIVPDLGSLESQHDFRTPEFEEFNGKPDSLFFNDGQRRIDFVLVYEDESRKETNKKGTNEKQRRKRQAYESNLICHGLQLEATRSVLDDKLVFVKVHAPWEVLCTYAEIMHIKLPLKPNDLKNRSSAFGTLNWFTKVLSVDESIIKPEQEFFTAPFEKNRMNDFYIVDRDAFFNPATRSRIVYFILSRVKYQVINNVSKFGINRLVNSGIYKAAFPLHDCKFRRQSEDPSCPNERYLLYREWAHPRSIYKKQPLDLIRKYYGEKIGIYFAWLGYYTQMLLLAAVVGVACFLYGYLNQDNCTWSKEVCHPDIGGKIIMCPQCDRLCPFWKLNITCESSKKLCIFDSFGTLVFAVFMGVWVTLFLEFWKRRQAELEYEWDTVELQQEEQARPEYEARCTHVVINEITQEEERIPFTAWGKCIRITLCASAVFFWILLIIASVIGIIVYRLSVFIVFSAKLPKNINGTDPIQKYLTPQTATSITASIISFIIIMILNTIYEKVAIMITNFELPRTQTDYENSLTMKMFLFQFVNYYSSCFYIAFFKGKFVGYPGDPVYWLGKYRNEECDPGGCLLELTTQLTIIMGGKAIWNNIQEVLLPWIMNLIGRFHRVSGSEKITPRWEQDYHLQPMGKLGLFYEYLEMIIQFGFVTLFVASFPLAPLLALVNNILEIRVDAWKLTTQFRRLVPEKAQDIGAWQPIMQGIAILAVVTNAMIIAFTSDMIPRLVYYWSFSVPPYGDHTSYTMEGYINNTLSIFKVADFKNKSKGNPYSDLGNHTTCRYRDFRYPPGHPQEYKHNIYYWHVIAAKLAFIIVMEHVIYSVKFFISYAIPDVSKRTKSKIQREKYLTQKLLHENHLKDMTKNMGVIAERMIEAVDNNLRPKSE
UniProt Q9NP73: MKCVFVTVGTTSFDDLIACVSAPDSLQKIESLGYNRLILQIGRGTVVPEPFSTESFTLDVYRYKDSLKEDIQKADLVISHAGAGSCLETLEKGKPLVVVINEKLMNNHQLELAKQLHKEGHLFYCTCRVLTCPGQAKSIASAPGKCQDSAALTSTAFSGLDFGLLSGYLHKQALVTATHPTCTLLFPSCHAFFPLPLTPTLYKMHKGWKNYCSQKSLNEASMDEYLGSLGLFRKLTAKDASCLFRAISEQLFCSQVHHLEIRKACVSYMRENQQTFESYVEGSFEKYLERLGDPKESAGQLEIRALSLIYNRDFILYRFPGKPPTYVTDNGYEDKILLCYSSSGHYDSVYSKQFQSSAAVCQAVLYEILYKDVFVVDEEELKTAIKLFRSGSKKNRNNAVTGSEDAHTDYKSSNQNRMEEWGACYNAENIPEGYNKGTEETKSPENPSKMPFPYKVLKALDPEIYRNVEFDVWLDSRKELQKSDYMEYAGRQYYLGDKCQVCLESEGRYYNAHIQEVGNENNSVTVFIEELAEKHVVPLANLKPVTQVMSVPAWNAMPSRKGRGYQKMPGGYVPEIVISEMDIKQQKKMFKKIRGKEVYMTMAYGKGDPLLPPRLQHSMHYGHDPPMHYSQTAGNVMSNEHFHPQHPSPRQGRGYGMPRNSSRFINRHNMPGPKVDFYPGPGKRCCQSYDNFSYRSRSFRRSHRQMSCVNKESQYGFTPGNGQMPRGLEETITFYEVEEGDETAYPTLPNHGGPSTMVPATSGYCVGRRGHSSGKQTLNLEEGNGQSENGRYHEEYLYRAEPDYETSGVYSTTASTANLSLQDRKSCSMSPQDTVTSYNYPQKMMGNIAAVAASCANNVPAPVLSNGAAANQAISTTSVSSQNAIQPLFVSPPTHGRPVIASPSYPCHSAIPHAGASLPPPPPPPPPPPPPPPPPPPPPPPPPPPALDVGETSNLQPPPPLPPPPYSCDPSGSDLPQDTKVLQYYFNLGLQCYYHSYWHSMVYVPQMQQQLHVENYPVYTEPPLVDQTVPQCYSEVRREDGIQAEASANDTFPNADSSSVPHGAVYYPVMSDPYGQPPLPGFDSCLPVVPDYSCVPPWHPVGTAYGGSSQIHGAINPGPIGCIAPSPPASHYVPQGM
UniProt P09917: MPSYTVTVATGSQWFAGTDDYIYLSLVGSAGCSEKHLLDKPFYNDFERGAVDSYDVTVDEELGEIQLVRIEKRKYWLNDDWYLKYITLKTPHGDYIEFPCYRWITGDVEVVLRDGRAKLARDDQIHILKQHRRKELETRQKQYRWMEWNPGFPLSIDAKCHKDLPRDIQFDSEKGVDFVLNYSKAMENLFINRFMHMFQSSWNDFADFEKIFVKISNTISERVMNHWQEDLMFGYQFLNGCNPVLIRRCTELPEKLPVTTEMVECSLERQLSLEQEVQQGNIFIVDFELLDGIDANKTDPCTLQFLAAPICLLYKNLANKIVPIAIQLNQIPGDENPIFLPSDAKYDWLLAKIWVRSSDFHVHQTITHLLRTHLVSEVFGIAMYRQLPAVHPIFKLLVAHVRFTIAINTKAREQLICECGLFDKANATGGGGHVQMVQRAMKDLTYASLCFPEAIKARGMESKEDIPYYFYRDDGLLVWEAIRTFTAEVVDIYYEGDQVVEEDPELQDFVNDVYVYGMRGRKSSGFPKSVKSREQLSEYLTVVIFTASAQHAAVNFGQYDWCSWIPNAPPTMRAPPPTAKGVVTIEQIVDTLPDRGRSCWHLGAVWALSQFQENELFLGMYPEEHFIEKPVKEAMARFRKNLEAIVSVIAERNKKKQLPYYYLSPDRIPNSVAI
UniProt Q96BT7: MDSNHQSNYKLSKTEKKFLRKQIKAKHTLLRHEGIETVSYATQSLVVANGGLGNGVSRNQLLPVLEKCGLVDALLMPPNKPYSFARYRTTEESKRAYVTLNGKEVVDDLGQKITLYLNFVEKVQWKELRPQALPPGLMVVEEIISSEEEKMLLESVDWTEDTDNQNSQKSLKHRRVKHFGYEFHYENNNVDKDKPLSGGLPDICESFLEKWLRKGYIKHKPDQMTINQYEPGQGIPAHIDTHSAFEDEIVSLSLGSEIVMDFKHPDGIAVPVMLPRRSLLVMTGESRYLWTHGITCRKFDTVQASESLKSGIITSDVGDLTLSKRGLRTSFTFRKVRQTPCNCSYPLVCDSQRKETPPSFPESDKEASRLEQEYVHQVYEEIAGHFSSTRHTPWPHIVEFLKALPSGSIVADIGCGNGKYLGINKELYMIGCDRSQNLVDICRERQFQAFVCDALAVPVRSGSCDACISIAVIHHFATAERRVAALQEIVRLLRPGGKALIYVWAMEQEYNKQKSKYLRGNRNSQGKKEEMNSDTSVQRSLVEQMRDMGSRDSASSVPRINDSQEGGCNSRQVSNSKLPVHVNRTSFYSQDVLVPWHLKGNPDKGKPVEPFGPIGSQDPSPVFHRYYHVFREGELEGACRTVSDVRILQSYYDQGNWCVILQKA
UniProt Q9Y6B7: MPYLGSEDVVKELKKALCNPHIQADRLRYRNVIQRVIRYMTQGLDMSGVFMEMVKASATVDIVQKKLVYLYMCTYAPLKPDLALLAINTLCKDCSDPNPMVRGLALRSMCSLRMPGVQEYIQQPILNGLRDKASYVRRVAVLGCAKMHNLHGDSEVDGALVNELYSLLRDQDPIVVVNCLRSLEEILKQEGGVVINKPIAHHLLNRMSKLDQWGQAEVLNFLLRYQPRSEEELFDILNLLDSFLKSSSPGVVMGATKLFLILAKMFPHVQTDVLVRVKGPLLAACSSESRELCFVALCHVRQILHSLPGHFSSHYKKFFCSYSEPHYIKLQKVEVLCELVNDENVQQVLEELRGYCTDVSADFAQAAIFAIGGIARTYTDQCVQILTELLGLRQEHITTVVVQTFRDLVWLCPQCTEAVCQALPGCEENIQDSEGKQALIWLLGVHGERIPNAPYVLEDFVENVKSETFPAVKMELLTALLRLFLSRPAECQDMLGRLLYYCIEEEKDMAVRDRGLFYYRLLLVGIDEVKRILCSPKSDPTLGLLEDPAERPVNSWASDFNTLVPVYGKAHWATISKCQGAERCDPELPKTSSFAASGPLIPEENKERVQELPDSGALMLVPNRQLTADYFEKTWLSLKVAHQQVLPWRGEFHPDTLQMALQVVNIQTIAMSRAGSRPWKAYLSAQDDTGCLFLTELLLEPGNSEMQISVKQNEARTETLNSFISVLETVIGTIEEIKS
UniProt P09525: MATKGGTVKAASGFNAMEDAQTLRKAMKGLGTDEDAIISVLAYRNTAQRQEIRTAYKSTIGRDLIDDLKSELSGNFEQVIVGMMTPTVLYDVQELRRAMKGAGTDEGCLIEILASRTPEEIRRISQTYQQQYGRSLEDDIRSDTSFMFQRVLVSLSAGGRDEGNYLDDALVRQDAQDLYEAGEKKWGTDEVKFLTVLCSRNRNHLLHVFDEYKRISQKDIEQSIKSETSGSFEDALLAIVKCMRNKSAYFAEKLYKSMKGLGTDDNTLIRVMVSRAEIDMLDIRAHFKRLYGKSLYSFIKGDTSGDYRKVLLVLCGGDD
UniProt P53680: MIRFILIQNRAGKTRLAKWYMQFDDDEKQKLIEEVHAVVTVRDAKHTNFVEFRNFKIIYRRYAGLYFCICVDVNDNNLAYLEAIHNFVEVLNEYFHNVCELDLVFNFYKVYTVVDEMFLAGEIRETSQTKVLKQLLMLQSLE
UniProt Q9NXW9: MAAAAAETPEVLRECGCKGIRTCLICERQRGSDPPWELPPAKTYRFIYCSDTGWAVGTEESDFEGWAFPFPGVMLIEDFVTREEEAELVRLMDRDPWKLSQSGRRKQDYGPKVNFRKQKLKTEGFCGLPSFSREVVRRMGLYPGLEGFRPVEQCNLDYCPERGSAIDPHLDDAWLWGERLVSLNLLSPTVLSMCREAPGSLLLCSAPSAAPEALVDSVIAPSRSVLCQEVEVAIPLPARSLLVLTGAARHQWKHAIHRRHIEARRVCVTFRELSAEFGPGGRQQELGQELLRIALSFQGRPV
UniProt Q8IZ83: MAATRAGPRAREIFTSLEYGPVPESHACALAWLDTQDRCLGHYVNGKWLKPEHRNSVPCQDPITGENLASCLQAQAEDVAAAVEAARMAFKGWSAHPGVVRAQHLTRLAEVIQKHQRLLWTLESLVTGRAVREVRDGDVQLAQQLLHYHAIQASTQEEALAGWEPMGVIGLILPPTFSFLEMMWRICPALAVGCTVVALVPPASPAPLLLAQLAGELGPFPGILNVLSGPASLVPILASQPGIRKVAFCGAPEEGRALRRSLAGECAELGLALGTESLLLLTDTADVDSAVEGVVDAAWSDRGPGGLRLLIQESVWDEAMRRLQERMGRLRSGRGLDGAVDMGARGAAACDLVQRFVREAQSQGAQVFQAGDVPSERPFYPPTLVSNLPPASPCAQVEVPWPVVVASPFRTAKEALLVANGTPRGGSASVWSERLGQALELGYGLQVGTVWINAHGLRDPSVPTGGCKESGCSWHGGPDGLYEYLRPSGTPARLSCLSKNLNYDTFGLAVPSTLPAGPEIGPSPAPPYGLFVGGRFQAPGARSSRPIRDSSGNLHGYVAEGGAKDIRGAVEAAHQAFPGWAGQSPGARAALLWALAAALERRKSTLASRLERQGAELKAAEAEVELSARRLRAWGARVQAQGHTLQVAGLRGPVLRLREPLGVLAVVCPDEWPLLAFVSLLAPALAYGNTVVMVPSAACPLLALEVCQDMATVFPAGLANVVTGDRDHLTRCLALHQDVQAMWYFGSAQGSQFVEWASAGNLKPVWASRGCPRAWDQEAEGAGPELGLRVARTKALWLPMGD
UniProt Q8IV38: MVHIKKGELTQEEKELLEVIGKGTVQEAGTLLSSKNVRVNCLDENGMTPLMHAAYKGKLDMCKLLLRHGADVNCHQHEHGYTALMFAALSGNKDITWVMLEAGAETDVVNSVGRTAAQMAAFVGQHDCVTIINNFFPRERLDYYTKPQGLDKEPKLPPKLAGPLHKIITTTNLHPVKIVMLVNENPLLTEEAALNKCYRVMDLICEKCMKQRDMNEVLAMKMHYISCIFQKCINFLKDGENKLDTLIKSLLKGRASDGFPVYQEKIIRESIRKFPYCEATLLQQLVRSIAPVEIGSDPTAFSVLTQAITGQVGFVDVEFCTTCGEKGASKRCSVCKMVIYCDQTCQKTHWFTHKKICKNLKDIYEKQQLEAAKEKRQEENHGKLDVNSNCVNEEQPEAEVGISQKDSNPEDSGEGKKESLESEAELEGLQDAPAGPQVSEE

Tubastatin A = compound: CN1CCc2c(c3ccccc3n2Cc2ccc(C(=O)NO)cc2)C1 [Tubastatin A]
Outline: as §1

[1] = compound: CNC(=O)C1=CC=CC=C1NC2=NC(=NC=C2Cl)NC3=C(C=C(C=C3)N4CCOCC4)OC
Outline: as §1

defactinib = compound: CNC(=O)c1ccc(Nc2ncc(C(F)(F)F)c(NCc3nccnc3N(C)S(C)(=O)=O)n2)cc1 [defactinib]
Outline: as §1

[2] = compound: CNc1nc(-c2ccc3c(N)n[nH]c3c2)cc(N2C[C@@H](C(=O)NC3CCCCC3)CC[C@H]2C)n1
Outline: as §1

encorafenib = compound: COC(=O)N[C@@H](C)CNc1nccc(-c2cn(C(C)C)nc2-c2cc(Cl)cc(NS(C)(=O)=O)c2F)n1 [encorafenib]
Outline: as §1

[3] = compound: COC(=O)[C@H](CCSC)NC(=O)C1=C(C=C(C=C1)NC[C@H](CS)N)C2=CC=CC=C2
Outline: as §1

alisertib = compound: COc1cc(Nc2ncc3c(n2)-c2ccc(Cl)cc2C(c2c(F)cccc2OC)=NC3)ccc1C(=O)O [alisertib]
Outline: as §1

[4] = compound: COc1cc2nc(-c3cc(F)ccc3O)nc(N[C@@H]3CNC[C@H]3C(C)(C)O)c2cc1OC
Outline: as §1

gefitinib = compound: COc1cc2ncnc(Nc3ccc(F)c(Cl)c3)c2cc1OCCCN1CCOCC1 [gefitinib]
Outline: as §1

Target | log2 fold change (alvocidib) | log2 fold change (Tubastatin A) | log2 fold change [1] | log2 fold change (defactinib) | log2 fold change [2] | log2 fold change (encorafenib) | log2 fold change [3] | log2 fold change (alisertib) | log2 fold change [4] | log2 fold change (gefitinib)
AMMECR1 (UniProt Q9Y4X0) | inactive: -0.014 | inactive: 0.022 | inactive: 0.02 | inactive: 0.02 | inactive: 0.003 | inactive: 0.02 | inactive: -0.01 | inactive: -0.031 | inactive: 0.011 | inactive: -0.019
ANAPC1 (UniProt Q9H1A4) | inactive: -0.007 | inactive: -0.081 | inactive: 0.02 | inactive: -0.011 | inactive: 0.014 | inactive: 0.055 | inactive: -0.042 | inactive: 0.005 | inactive: 0.012 | inactive: 0
ANXA5 (UniProt P08758) | inactive: 0.04 | inactive: 0 | inactive: -0.023 | inactive: -0.002 | inactive: -0.067 | inactive: -0.016 | inactive: 0.049 | inactive: 0.052 | inactive: -0.009 | inactive: 0.049
ANO6 (UniProt Q4KMQ2) | inactive: -0.018 | inactive: 0.022 | inactive: 0.03 | inactive: 0.029 | inactive: -0.015 | inactive: 0.015 | inactive: 0.085 | inactive: 0.04 | inactive: -0.014 | inactive: -0.06
ALG13 (UniProt Q9NP73) | inactive: -0.039 | inactive: -0.065 | inactive: 0.122 | inactive: 0.028 | inactive: 0.053 | inactive: 0.059 | inactive: -0.082 | inactive: -0.059 | inactive: 0 | inactive: -0.224
ALDH1L2 (UniProt Q3SY69) | inactive: -0.04 | inactive: -0.03 | inactive: -0.028 | inactive: -0.04 | inactive: -0.021 | inactive: -0.002 | active: 0.288 | inactive: -0.039 | inactive: 0.039 | inactive: 0.017
ANKRD27 (UniProt Q96NW4) | inactive: -0.056 | inactive: -0.118 | inactive: 0.046 | inactive: 0.035 | inactive: 0.003 | inactive: -0.007 | inactive: 0.103 | inactive: -0.053 | inactive: -0.087 | inactive: 0.03
ALOX5 (UniProt P09917) | inactive: -0.185 | – | – | – | – | – | – | – | – | –
ALKBH8 isoform 4 (UniProt Q96BT7) | inactive: -0.025 | inactive: 0.06 | inactive: 0.032 | inactive: 0.027 | inactive: 0.012 | inactive: 0.077 | inactive: 0.065 | inactive: -0.009 | inactive: -0.007 | inactive: 0.085
ANKRD11 (UniProt Q6UB99) | inactive: -0.25 | inactive: -0.017 | inactive: 0.049 | inactive: 0.031 | inactive: -0.128 | inactive: -0.031 | inactive: 0.056 | – | – | –
AP4B1 (UniProt Q9Y6B7) | inactive: -0.053 | inactive: -0.021 | inactive: -0.051 | inactive: -0.001 | inactive: 0.041 | inactive: 0.057 | inactive: -0.01 | inactive: -0.014 | inactive: -0.121 | inactive: 0.031
AKT1S1 isoform 3 (UniProt Q96B36) | inactive: -0.008 | inactive: 0.025 | inactive: -0.022 | inactive: -0.015 | inactive: 0.025 | inactive: -0.02 | inactive: 0.036 | inactive: -0.002 | inactive: 0.012 | inactive: 0.138
ANK3 (UniProt Q12955) | inactive: -0.015 | inactive: -0.037 | inactive: 0.026 | inactive: 0.017 | inactive: -0.008 | inactive: 0.03 | inactive: 0.043 | inactive: -0.001 | inactive: 0.029 | inactive: -0.036
ANKRD13D isoform 3 (UniProt Q6ZTN6) | inactive: -0.038 | inactive: -0.103 | inactive: 0.059 | inactive: 0.157 | inactive: 0.033 | inactive: -0.169 | inactive: -0.036 | inactive: -0.019 | inactive: -0.029 | inactive: 0
ALAD (UniProt P13716) | inactive: -0.028 | inactive: -0.008 | inactive: 0.011 | inactive: -0.01 | inactive: 0.015 | inactive: 0.007 | inactive: -0.019 | inactive: -0.046 | inactive: -0.013 | inactive: 0.03
ANKRD46 (UniProt Q86W74) | inactive: 0.094 | inactive: 0.04 | inactive: 0.013 | inactive: 0.091 | inactive: -0.032 | – | – | – | – | –

Look-ups from the list:
Entry for ALKBH8 isoform 4 (UniProt Q96BT7) under log2 fold change (alisertib): inactive: -0.009
Entry for ANKRD27 (UniProt Q96NW4) under log2 fold change [4]: inactive: -0.087

The list continues.

Target | log2 fold change (alvocidib) | log2 fold change (Tubastatin A) | log2 fold change [1] | log2 fold change (defactinib) | log2 fold change [2] | log2 fold change (encorafenib) | log2 fold change [3] | log2 fold change (alisertib) | log2 fold change [4] | log2 fold change (gefitinib)
ANXA4 (UniProt P09525) | inactive: 0.017 | inactive: 0.024 | inactive: -0.015 | inactive: -0.013 | inactive: -0.043 | inactive: 0.006 | inactive: 0.046 | inactive: 0.024 | inactive: 0.003 | inactive: 0.019
AP1G1 isoform 2 (UniProt O43747) | inactive: -0.058 | inactive: 0.012 | inactive: 0.014 | inactive: 0.003 | inactive: 0.002 | inactive: 0.029 | inactive: 0.005 | inactive: -0.003 | inactive: 0.012 | inactive: -0.005
ANP32B (UniProt Q92688) | inactive: 0.002 | inactive: 0.024 | inactive: 0.01 | inactive: -0.026 | inactive: 0.018 | inactive: -0.018 | inactive: -0.048 | inactive: 0.032 | inactive: -0.012 | inactive: 0.007
ANLN (UniProt Q9NQW6) | inactive: -0.037 | inactive: -0.196 | inactive: 0.058 | inactive: 0.012 | inactive: 0.011 | inactive: 0.036 | inactive: 0.102 | inactive: 0.051 | inactive: 0.004 | inactive: 0.03
AP2S1 (UniProt P53680) | inactive: -0.006 | inactive: 0.007 | inactive: -0.012 | inactive: 0.006 | inactive: -0.139 | inactive: 0.045 | inactive: -0.056 | inactive: 0.022 | inactive: -0.014 | inactive: 0.036
ALDH9A1 isoform 3 (UniProt P49189) | inactive: 0.014 | inactive: -0.018 | inactive: 0.029 | inactive: 0.012 | inactive: 0 | inactive: -0.036 | inactive: 0.065 | inactive: -0.019 | inactive: -0.003 | inactive: -0.043
ANAPC7 (UniProt Q9UJX3) | inactive: 0.011 | inactive: -0.1 | inactive: 0.036 | inactive: 0.014 | inactive: -0.03 | inactive: 0.026 | inactive: 0.002 | inactive: -0.001 | inactive: 0.005 | inactive: 0.017
ALKBH4 (UniProt Q9NXW9) | inactive: 0.029 | inactive: -0.093 | inactive: -0.003 | inactive: 0.166 | inactive: 0.026 | inactive: 0.053 | inactive: -0.02 | inactive: 0.019 | inactive: -0.03 | inactive: 0.044
ALDH16A1 (UniProt Q8IZ83) | inactive: -0.021 | inactive: -0.003 | inactive: -0.01 | inactive: 0.001 | inactive: 0.003 | inactive: 0.022 | inactive: -0.016 | inactive: -0.034 | inactive: -0.014 | inactive: -0.012
ANKRD54 (UniProt Q6NXT1) | inactive: -0.019 | inactive: -0.095 | inactive: 0.121 | inactive: 0.022 | inactive: 0.042 | inactive: 0.082 | inactive: -0.147 | inactive: 0.006 | inactive: -0.011 | inactive: 0.002
ALKBH2 (UniProt Q6NS38) | inactive: 0.061 | inactive: 0.041 | inactive: 0.01 | inactive: 0 | inactive: 0.061 | inactive: -0.014 | inactive: 0.083 | inactive: 0.062 | inactive: -0.115 | inactive: -0.086
ALDOA (UniProt P04075) | inactive: 0.011 | inactive: 0.044 | inactive: 0.006 | inactive: -0.002 | inactive: 0.007 | inactive: -0.044 | inactive: -0.054 | inactive: 0.004 | inactive: -0.009 | inactive: -0.051
AMMECR1L (UniProt Q6DCA0) | inactive: 0.05 | inactive: -0.064 | inactive: -0.113 | inactive: 0.061 | inactive: -0.001 | inactive: -0.025 | inactive: -0.081 | – | – | –
ANKS1A (UniProt Q92625) | inactive: -0.064 | inactive: -0.065 | inactive: 0.032 | inactive: 0.04 | inactive: 0.008 | inactive: 0.061 | inactive: 0.038 | inactive: -0.016 | inactive: -0.004 | inactive: 0.002
ANKMY2 (UniProt Q8IV38) | inactive: 0.047 | inactive: -0.009 | inactive: 0.023 | inactive: 0.015 | inactive: 0.028 | inactive: -0.005 | inactive: 0.066 | inactive: -0.004 | inactive: -0.005 | inactive: -0.027

Record cards, as listed above. Order of values: log2 fold change (alvocidib) | log2 fold change (Tubastatin A) | log2 fold change [1] | log2 fold change (defactinib) | log2 fold change [2] | log2 fold change (encorafenib) | log2 fold change [3] | log2 fold change (alisertib) | log2 fold change [4] | log2 fold change (gefitinib)
ALOX5 (UniProt P09917) as listed: inactive: -0.185 | – | – | – | – | – | – | – | – | –
ANK3 (UniProt Q12955) as listed: inactive: -0.015 | inactive: -0.037 | inactive: 0.026 | inactive: 0.017 | inactive: -0.008 | inactive: 0.03 | inactive: 0.043 | inactive: -0.001 | inactive: 0.029 | inactive: -0.036
